Results deposited as PubChem BioAssay AID504774 (Drosophila RNAi Screening Center, 2011)
Test: 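Knock-downs that shift viability of MMS-exposed cells relative to untreated ones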 (primary screen). System: Drosophila Kc167 cells. Reagent: long dsRNA against Drosophila genes, about 0.25 µg dsRNA per well. Duration: about 6 days: 3 days knock-down, then 3 days with or without MMS. Conditions: methyl methanesulphonate 0.004% (w/v) for 3 days after knock-down. Measured: 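ATP-dependent luminescence as a measure of live cells in MMS-exposed wells, quantile normalised within each plate, with replicate values also given as a mean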. Direction: mean viability with MMS: higher = more surviving cells after MMS.
The deposit covers about 23,000 reagents; shown is an unselected part of those with a known target gene and a result. 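Values are quantile-normalised luminescence on an arbitrary scale; higher means more cells surviving MMS.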 Names joined by + are all predicted targets of the reagent. Further read-outs or replicates are left out here.

Las (Lipoic acid synthase) [DRSC11772] gave mean viability with MMS 3.40e6.
Silencing of CG1958 [DRSC18196] gave: mean viability with MMS 3.46e6.
After knock-down of CNT1 (Concentrative nucleoside transporter 1) [DRSC06082], the record shows mean viability with MMS 3.56e6.
Knock-down of BEAF-32 (Boundary element-associated factor of 32kD) [DRSC05927] gave: mean viability with MMS 3.59e6.
After knock-down of vls (valois) [DRSC02101], the record shows mean viability with MMS 3.52e6.
CG42268 [DRSC10171] showed mean viability with MMS 3.49e6.
For CG42268 [DRSC10702] the deposit lists mean viability with MMS 3.78e6.
Depletion of CG42268 [DRSC21797] resulted in: mean viability with MMS 3.35e6.
Spn42Db (Serpin 42Db) [DRSC05009] showed mean viability with MMS 3.49e6.
Ttc1 (Tetratricopeptide repeat domain 1) [DRSC15016] showed mean viability with MMS 3.35e6.
For Ttc1 (Tetratricopeptide repeat domain 1) [DRSC22469] the deposit lists mean viability with MMS 3.78e6.
Silencing of tsg (twisted gastrulation) [DRSC20380] gave: mean viability with MMS 3.58e6.
sna (snail) [DRSC03613] gave mean viability with MMS 3.47e6.
After knock-down of CG6276 [DRSC16007] the results were mean viability with MMS 3.47e6.
Silencing of mirr (mirror) [DRSC11369] gave: mean viability with MMS 3.50e6.
mRpS14 (mitochondrial ribosomal protein S14) [DRSC19444] showed mean viability with MMS 3.56e6.
For Mnt [DRSC17894] the deposit lists mean viability with MMS 3.37e6.
After knock-down of Mnt [DRSC18480], the screen gave mean viability with MMS 3.61e6.
After knock-down of CG14420 [DRSC17917] the results were mean viability with MMS 3.46e6.
Knock-down of Lcp65Ae [DRSC11212] came out at: mean viability with MMS 3.66e6.
Rh6 (Rhodopsin 6) [DRSC16823] showed mean viability with MMS 3.40e6.
Against CG7810 [DRSC03072], the values are mean viability with MMS 3.71e6.
After knock-down of Eig71Ea (Ecdysone-induced gene 71Ea) [DRSC11148], the record shows mean viability with MMS 3.65e6.
Knock-down of CG18789 [DRSC02696] came out at: mean viability with MMS 3.79e6.
For CG9875 [DRSC04585], the values are mean viability with MMS 3.81e6.
Sp212 (Serine-peptidase 212) [DRSC22930] scored mean viability with MMS 3.50e6.
Against Frl (Formin-like) [DRSC09300] the deposit lists mean viability with MMS 3.56e6.
Depletion of Frl (Formin-like) [DRSC10027] resulted in: mean viability with MMS 3.49e6.
Silencing of Frl (Formin-like) [DRSC10716] gave: mean viability with MMS 3.44e6.
Silencing of pck (pickel) [DRSC18565] resulted in: mean viability with MMS 3.43e6.
For CG15429 [DRSC00444], the values are mean viability with MMS 3.53e6.
Silencing of lok (loki) [DRSC03567] gave: mean viability with MMS 3.55e6.
After knock-down of CG14104 [DRSC10106], the screen gave mean viability with MMS 3.86e6.
Rpn7 (Regulatory particle non-ATPase 7) [DRSC16841] showed mean viability with MMS 2.94e6.
Knock-down of CG10904 [DRSC04084] gave: mean viability with MMS 3.56e6.
After knock-down of CG8326 [DRSC20103], the record shows mean viability with MMS 3.49e6.
Against CG2841 [DRSC17699], the entry reads mean viability with MMS 3.59e6.
CG2841 [DRSC18824] scored mean viability with MMS 3.44e6.
For CG2841 [DRSC22106] the deposit lists mean viability with MMS 3.67e6.
After knock-down of CG17612 [DRSC00505], the record shows mean viability with MMS 3.51e6.
spdo (sanpodo) [DRSC13988] scored mean viability with MMS 3.39e6.
For CG44001 + CG33995 [DRSC00853], the values are mean viability with MMS 3.47e6.
Against CG44001 + CG33995 [DRSC02898] the deposit lists mean viability with MMS 3.45e6.
CG10343 [DRSC02041] gave mean viability with MMS 3.57e6.
CG18063 [DRSC01968] gave mean viability with MMS 3.47e6.

Individual results from the list.
Rpn7 (Regulatory particle non-ATPase 7) [DRSC16841], mean viability with MMS = 2.94e6
CG2841 [DRSC17699], mean viability with MMS = 3.59e6
Entry for Frl (Formin-like) [DRSC10716] under “mean viability with MMS”: 3.44e6
